From patent publication US9107889B2, “Compositions comprising an NO donor and a dithiolane and their use for improvement of sexual function” (Encrypta GmbH, priority 2005, dated 2015)
At least one structure is not confirmed: it was looked up by name or label, or the drawing left a doubt.

Legend:
[1] = tested on: erectile dysfunction (ED); experiment: Clinical case reports: erectile function, International Index of Erectile Function (IIEF) score; format: in vivo, human; details: Case 5, psychogenic ED and premature ejaculation; Silfenadil and Verdenafil
From the text: ED is clinically assessed by the application of the International Index of Erectile Function (IIEF Scale). The scale consists of 5 items related to erectile function scored from never (1 points) to always (5 points). 21-25 points translate to the absence of ED, 16-20 points relate to a mild ED, 11-15 points relate to a moderate ED and 5-10 points translate to a severe ED.
A person suffered since 3 months from worsening of erection (reduction of penile tension) and of a slight reduction of libido. Their IIEF count at the examination was 9. All biochemical parameters and hormones were within the normal range. The Doppler sonography of the penile vessels was normal. A challenge test with Silfenadil was positive, thereby excluding an organic pathology of the erectile dysfunction (ED). […] Psychogenic ED was diagnosed after examination. […] Arginine (5 g) and 600 mg α-lipoic acid were taken orally 30 minutes prior intercourse. After therapy, erection normalized. The IIEF score improved from 9 to 21 points.
A person complained since a week about insufficient erection. The person started sexual life with regularly intercourse twice a week. 3 months ago, they changed the sexual partner. At the 1st intercourse with the new partner, they experienced overexcitement. Since that time erection worsened, with an IIEF score of 8 points. The biochemical and hormonal values were within the normal range. […]

premature ejaculation = experiment: Clinical case reports: duration of intercourse / premature ejaculation; format: in vivo, human; details: Case 5; Silfenadil and Verdenafil
Experimental: A patient complained about worsening of erection since 7 years. Sexual intercourse was only possible in selected position. In addition, they suffered from premature ejaculation. Their libido remained intact. The IEFF score at diagnosis was 11. The diagnosis was physical ED and premature ejaculation. 600 mg α-lipoic acid was given as single dose and arginine was given in 4 single doses over the day of 2 g. The erection improved and the intercourse was prolonged from 1-2 minutes to 7 minutes. The IEFF score changed from 11 to 15 points. The 4 single doses have been changed to a single dose of 10 g arginine, taken together with the α-lipoic acid.
A patient complained about worsening of erection and premature ejaculation. After administration of Silfenadil and Verdenafil, the erection improved; however, the premature ejaculations remained. The diagnosis was psychogenic ED and premature ejaculation. […] However, 200 mg thioctic acid together with 10 g arginine led to an improvement of the IIEF from 8 to 20 points. The duration of intercourse was extended from 1 to 4 minutes.
A person was able to perform intercourse only after nasal intake of isoamylnitrite since 5 years. However, intercourse was still unsatisfactory due to unpredictable erections and premature ejaculations. The diagnosis was physical erectile dysfunction and premature ejaculation. […]

CCCc1nc(C)c2c(=O)[nH]c(-c3cc(S(=O)(=O)N4CCN(CC)CC4)ccc3OCC)nn12 [Verdenafil]
erection after administration [1]: improved | premature ejaculations after administration (premature ejaculation): remained
